Values quoted from earlier work, collected in patent US11197933B2, “Polysubunit opioid prodrugs resistant to overdose and abuse” (Elysium Therapeutics, Inc., priority 2017, dated 2021).
Where a name gives a salt, the structure may show the parent alone.

Settings: cited from earlier work

O=C1CC[C@@]2(O)[C@H]3Cc4ccc(O)c5c4[C@@]2(CCN3CC2CC2)[C@H]1O5 [hydrochloride salt of naltrexone, naltrexone]
Solubility in water: about 100 mg/mL
